Measurements from the supplement of paper PMC10849652.
The other results are listed elsewhere or left out.

The chains behind the UniProt entries cited, without tags or fusion partners. Where a name states a change or a piece, a line headed by the entry shows the natural chain unless it says otherwise.
UniProt Q92551: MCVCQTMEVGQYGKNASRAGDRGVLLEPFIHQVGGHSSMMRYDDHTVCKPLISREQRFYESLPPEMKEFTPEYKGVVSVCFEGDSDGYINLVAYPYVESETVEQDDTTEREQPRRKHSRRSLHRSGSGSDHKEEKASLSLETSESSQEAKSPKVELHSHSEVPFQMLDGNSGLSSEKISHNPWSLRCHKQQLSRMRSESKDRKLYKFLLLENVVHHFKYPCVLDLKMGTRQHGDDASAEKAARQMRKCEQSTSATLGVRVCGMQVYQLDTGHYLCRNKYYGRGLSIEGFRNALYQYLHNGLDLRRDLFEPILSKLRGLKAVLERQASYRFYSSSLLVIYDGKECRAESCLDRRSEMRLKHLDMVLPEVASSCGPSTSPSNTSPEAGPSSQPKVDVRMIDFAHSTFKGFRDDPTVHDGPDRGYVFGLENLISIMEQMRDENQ
UniProt Q9Y2K7: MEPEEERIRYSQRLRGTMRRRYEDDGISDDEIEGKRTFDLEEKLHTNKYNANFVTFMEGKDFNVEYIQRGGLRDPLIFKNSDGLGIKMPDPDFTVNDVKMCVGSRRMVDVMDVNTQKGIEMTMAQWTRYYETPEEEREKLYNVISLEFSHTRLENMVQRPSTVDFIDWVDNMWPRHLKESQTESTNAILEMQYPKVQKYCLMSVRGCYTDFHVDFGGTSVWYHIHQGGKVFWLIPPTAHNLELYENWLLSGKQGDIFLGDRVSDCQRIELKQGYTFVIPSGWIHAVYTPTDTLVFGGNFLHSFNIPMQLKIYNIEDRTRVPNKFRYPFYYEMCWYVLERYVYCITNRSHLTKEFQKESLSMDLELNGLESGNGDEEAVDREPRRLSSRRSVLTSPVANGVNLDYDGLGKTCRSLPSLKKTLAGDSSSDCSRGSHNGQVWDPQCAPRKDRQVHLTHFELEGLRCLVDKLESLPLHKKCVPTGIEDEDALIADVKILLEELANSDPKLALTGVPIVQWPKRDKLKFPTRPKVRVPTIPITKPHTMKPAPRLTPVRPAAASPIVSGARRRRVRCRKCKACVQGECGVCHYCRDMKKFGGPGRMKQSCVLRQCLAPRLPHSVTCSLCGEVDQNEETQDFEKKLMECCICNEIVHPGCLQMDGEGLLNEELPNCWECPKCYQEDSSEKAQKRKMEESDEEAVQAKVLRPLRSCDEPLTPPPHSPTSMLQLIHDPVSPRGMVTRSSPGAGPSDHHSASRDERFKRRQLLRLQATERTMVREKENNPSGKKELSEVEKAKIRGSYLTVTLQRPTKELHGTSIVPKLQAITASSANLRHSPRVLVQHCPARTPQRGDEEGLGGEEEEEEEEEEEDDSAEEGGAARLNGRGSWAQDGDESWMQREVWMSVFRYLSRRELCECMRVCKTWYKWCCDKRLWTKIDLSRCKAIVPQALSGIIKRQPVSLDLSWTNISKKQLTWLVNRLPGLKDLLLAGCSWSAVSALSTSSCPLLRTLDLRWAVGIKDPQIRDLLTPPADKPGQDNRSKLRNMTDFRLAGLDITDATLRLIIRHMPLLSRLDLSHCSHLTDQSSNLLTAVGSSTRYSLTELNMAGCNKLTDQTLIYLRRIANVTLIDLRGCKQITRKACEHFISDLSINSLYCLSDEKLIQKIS
UniProt Q15051: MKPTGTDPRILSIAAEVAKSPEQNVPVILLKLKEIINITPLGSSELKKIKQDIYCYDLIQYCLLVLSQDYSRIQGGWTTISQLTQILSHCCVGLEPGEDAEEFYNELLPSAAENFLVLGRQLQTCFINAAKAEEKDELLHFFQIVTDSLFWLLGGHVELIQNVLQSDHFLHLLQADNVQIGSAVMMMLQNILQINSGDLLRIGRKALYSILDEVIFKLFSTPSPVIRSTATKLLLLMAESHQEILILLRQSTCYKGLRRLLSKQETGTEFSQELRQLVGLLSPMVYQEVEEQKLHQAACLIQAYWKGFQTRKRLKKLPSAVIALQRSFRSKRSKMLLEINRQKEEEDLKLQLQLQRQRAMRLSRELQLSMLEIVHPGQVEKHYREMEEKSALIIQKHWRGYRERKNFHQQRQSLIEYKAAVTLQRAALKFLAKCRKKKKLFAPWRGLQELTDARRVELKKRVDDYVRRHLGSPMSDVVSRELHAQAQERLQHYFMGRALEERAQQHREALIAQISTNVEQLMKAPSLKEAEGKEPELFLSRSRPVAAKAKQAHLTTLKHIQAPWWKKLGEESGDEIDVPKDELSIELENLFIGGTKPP
UniProt Q7LBC6: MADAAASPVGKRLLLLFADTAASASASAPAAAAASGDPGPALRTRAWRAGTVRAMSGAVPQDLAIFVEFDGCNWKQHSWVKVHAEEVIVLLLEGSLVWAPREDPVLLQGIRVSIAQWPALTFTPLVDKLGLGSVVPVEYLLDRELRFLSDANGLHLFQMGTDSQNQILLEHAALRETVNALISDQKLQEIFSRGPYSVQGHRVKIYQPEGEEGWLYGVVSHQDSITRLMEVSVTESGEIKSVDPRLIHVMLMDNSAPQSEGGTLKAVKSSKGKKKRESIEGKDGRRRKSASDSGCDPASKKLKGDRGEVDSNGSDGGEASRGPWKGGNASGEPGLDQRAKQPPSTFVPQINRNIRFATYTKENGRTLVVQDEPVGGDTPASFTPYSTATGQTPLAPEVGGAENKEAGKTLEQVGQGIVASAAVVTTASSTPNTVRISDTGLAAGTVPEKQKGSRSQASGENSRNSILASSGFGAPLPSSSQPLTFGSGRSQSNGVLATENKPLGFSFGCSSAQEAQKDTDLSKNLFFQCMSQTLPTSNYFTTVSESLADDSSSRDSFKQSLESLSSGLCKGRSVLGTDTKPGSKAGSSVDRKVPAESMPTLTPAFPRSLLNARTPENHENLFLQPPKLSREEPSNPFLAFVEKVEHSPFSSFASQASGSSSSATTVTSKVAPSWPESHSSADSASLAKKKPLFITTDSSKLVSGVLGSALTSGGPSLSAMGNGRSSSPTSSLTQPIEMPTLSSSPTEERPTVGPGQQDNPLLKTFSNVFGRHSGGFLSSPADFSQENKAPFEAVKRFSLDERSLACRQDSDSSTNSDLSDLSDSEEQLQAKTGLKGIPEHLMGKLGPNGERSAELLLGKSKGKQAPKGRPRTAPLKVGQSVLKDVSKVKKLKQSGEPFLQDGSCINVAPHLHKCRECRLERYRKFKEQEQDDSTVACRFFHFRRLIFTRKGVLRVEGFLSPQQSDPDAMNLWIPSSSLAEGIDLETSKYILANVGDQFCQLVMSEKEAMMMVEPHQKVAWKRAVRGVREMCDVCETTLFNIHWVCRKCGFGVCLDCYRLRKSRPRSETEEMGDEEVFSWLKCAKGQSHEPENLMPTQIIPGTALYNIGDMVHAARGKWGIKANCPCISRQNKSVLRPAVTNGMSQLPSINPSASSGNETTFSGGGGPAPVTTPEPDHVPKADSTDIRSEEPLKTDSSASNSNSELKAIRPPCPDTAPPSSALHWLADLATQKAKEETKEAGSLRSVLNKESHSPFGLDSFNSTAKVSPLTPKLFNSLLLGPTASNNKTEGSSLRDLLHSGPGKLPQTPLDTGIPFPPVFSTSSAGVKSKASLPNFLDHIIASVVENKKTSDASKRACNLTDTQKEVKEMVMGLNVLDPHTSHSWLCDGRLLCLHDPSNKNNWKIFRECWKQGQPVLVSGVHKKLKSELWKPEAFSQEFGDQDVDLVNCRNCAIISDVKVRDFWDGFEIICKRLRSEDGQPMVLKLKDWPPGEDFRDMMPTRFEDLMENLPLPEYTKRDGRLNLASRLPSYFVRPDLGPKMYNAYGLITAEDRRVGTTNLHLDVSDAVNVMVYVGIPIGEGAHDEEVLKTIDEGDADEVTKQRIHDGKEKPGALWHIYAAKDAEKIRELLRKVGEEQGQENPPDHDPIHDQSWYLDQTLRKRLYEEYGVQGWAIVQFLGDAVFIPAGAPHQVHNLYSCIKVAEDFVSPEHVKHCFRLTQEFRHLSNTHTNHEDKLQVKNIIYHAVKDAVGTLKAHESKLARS
UniProt Q86V97: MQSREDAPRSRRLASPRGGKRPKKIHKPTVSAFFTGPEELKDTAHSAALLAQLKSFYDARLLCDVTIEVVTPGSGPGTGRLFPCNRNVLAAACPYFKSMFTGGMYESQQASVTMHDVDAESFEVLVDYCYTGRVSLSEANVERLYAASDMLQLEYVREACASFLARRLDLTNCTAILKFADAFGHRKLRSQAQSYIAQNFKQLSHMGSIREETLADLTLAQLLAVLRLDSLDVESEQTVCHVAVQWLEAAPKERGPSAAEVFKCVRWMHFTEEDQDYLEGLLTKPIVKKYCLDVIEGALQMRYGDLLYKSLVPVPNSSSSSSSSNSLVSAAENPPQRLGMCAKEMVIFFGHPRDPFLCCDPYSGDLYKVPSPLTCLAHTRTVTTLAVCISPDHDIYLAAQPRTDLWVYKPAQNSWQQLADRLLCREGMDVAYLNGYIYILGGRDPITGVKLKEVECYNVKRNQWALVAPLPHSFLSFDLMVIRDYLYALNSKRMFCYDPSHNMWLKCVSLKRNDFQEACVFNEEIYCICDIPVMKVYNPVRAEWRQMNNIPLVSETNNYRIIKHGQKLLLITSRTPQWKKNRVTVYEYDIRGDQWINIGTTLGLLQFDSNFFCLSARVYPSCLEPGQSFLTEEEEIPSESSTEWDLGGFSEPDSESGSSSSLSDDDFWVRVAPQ
UniProt Q96AZ6: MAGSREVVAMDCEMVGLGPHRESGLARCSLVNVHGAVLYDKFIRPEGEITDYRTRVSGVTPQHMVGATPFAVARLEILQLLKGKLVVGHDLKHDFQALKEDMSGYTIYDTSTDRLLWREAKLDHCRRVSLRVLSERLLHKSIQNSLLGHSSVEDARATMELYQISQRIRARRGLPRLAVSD
UniProt P17275: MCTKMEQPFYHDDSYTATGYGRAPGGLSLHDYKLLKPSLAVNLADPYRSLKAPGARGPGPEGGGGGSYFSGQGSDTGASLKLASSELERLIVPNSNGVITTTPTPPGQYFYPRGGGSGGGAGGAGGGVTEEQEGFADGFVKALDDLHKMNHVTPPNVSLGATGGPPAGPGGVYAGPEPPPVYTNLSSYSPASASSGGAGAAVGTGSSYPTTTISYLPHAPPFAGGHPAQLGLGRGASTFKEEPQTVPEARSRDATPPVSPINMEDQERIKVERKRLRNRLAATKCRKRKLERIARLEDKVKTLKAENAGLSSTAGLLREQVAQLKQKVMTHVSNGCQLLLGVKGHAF
UniProt P52333: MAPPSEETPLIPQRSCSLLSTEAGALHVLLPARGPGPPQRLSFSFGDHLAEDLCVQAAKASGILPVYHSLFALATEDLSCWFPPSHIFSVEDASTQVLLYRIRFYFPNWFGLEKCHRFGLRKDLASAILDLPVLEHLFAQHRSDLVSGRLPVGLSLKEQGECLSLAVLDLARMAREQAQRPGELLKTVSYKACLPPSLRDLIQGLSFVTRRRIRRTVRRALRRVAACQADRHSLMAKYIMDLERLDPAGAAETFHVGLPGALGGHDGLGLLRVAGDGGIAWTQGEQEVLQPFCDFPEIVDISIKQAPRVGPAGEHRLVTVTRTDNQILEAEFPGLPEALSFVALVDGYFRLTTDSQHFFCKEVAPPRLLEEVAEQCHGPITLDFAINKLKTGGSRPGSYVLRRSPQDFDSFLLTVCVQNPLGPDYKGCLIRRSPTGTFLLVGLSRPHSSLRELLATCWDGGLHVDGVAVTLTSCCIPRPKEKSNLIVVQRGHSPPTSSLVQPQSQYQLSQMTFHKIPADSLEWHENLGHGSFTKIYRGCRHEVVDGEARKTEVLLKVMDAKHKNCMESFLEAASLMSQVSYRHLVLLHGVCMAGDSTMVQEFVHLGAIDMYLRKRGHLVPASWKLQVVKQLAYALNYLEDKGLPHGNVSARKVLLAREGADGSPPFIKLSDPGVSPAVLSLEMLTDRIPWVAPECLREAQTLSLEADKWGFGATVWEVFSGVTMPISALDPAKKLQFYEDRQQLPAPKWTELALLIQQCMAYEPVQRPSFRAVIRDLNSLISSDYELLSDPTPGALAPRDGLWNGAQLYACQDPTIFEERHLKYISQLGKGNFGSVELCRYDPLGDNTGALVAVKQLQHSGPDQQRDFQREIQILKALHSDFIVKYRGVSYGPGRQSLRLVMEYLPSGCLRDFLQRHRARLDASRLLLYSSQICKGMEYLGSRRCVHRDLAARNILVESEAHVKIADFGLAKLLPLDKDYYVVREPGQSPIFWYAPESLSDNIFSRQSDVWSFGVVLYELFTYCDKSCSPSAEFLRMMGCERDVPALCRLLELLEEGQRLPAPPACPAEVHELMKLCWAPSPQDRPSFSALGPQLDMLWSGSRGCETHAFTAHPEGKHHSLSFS

What was measured:
Experiment in all cases: log2 fold change, soluble protein after heating vs DMSO (PISA); higher = thermal stabilisation; K562 lysate, 10 uM; active = over 0.2 and 3.5 SD of the protein, either way, in both replicates (recomputed)
[1] = compound: NCC(=O)Nc1ccc(-n2nc(C(F)(F)F)cc2-c2ccc3c(ccc4ccccc43)c2)cc1
How it was run: (§1)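 Log-two fold change in thermal stability relative to solvent controls is reported from duplicates. For each sample, crude K562 extract from dounce-homogenised pellets in PBS pH 7.4 with 1 mM MgCl2, at 1 mg/mL protein, was treated with 10 μM compound for 30 min. Aliquots heated for 3 min across 48°C-58°C were pooled, brought to 0.5% NP-40 at 4°C and cleared at 21,000xg for 90 min. The supernatant was quantified by TMTpro 16plex LC-MS/MS with channel sums equalised.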

[2] = compound: O=C(CCCCCCC(=O)Nc1ccccc1)NO [vorinostat]
How it was run: as §1

[3] = compound: O=C(O)c1ccc2c(c1)nc(Nc1cccc(Cl)c1)c1ccncc12 [silmitasertib]
How it was run: as §1

[4] = compound: O=C1NC(=O)C(c2cnc3ccccn23)=C1c1cn2c3c(cc(F)cc13)CN(C(=O)N1CCCCC1)CC2
How it was run: as §1

[5] = compound: c1cn2cc(-c3ccc4cn[nH]c4c3)nc(Nc3ccc(N4CCOCC4)cc3)c2n1 [entospletinib]
How it was run: as §1

Measured: log2 fold change

IST1 isoform 2 (UniProt P53990)
inactive: [1] 0.021 | [2] -0.055 | [3] -0.044 | [4] -0.033 | [5] -0.081

IP6K1 (UniProt Q92551)
inactive: [1] 0.08 | [2] -0.243 | [3] 0.09 | [4] -0.058 | [5] -0.068

KDM2A (UniProt Q9Y2K7)
inactive: [1] 0.032 | [2] -0.011 | [3] 0.083 | [5] -0.046

IQCB1 (UniProt Q15051)
inactive: [1] 0.051 | [2] -0.014 | [3] -0.098 | [5] 0.095

KDM3B (UniProt Q7LBC6)
inactive: [1] 0.021 | [2] -0.194 | [3] -0.006 | [4] -0.006 | [5] 0.009

KBTBD6 (UniProt Q86V97)
inactive: [4] -0.105

ISG20 (UniProt Q96AZ6)
inactive: [2] 0.106 | [3] -0.037

JUNB (UniProt P17275)
inactive: [4] -0.086

JAK3 (UniProt P52333)
inactive: [1] -0.319 | [4] -0.002
